This test deals with T1, Native pentameric human C-reactive protein (Scripps) (human), P02741.
T1 chain: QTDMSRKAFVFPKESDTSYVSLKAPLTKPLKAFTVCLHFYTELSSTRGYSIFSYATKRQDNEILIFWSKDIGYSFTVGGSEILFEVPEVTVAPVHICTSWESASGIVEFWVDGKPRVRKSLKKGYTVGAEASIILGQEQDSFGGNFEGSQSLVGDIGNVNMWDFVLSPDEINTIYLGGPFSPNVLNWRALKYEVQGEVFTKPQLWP
Put plainly: SEC; urea dissociation in the presence of calcium (5 mM); results not shown; both purified. The note with it: remark: other sources report otherwise. In general terms: SEC sorts molecules by how far they enter the pores of the column.

Results are given in words; binding and its absence hold for the method and conditions named. Some entries that bind do so weakly or less than the wild type.

B1: Native pentameric human C-reactive protein (Scripps), P02741 19-224 (natural protein)
chain: T1 chain
Turning to B1, the binding entry is “binds”.
